PubChem BioAssay AID1259308 | NCATS | 2017

- Screen: 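Genes whose loss raises luciferase production in HEK293 cells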 (primary screen)
- Cells: human HEK293 embryonic kidney cells stably expressing firefly luciferase (HEK-CMV-Luc2-Hygro)
- Reagents: single siRNA against human genes, 0.8 pmol siRNA per well
- Timing: 72 h
- Measurement: 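Reporter luminescence and viable-cell signal on separate replicate plates, given as percent of non-targeting control and median/MAD z-scores, plus per-cell luciferase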
- Direction: total luciferase, z-score: higher = more reporter protein produced
- Active means: 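An siRNA counts as active if its total luciferase robust z-score exceeds 3; genes with two or more such siRNAs out of three were retested with fresh siRNAs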
- Calls: active = raised luciferase; inactive = no rise
Shown is an unselected part of about 59,000 deposited reagents. Of all reagents, about 1,510 (2.6%) are marked active. 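Calls use total luciferase alone and ignore viability, so some active siRNAs may act by altering cell number.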 A number with no mark means an inactive call. Reagents against one gene are numbered here. Not all columns of the deposit are shown.

| gene | reagent no. | total luciferase, z-score |
| --- | --- | --- |
| VSTM4 | 1 | -0.736 |
| VSTM4 | 2 | 0.448 |
| VSTM4 | 3 | -0.78 |
| BPNT1 | 1 | -0.94 |
| BPNT1 | 2 | -0.167 |
| BPNT1 | 3 | 0.0151 |
| AHSP | 1 | -0.46 |
| AHSP | 2 | 0.198 |
| AHSP | 3 | -0.208 |
| C1S | 1 | 0.281 |
| C1S | 2 | 0.125 |
| C1S | 3 | -0.756 |
| ROBO1 | 1 | 0.574 |
| ROBO1 | 2 | -0.51 |
| ROBO1 | 3 | 0.276 |
| ATP7B | 1 | -1.11 |
| ATP7B | 2 | 0.268 |
| ATP7B | 3 | -0.43 |
| LINC02604 | 1 | 0.368 |
| LINC02604 | 2 | 0.00938 |
| LINC02604 | 3 | -1.51 |
| VENTX | 1 | 0.402 |
| VENTX | 2 | -0.559 |
| VENTX | 3 | 0.462 |

2 entries from above in another layout:
gene,reagent no.,"total luciferase, z-score"
C1S,1,0.281
C1S,2,0.125
